These results are taken from publication PMC3245271.

Protein sequences, listed by entry. Tags and fused reporters are not part of them.
UniProt P78417: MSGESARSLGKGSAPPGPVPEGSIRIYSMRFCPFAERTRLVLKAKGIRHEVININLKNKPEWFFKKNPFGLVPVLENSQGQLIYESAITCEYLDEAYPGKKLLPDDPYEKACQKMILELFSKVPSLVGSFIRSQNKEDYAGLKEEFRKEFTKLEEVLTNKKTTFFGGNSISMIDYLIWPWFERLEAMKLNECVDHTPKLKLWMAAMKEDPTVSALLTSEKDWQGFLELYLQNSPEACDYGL
UniProt Q9ULZ3: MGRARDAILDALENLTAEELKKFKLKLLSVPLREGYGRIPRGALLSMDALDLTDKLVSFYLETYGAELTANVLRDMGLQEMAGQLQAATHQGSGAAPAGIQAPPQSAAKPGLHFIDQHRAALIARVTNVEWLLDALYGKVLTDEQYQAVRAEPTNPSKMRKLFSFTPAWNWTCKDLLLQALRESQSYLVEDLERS
UniProt Q96P20: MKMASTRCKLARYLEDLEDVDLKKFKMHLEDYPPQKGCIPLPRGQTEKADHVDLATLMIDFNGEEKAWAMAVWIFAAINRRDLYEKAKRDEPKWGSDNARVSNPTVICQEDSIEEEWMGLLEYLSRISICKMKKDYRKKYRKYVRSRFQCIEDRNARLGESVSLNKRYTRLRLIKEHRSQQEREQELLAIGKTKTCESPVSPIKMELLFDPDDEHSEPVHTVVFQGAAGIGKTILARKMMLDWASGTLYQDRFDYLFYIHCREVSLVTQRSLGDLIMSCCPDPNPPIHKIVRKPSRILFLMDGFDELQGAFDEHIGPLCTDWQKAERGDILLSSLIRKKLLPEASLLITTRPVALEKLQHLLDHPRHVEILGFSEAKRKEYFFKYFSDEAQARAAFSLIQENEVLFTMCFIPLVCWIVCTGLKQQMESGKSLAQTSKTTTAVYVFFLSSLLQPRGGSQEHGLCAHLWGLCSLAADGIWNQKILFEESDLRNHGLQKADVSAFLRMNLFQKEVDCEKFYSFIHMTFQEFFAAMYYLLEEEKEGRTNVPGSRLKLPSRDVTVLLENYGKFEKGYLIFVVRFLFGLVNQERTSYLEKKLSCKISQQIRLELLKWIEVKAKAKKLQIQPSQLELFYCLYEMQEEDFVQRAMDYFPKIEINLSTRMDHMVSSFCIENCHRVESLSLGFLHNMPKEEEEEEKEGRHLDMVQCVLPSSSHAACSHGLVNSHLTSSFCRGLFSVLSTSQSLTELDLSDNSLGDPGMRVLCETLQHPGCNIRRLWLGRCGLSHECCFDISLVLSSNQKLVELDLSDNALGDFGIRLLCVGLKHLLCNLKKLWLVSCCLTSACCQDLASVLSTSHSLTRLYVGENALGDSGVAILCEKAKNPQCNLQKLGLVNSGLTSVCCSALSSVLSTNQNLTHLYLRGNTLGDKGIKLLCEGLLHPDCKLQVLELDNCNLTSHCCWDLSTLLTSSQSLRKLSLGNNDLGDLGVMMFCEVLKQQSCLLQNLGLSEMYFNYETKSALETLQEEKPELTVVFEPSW

The target of experiment [1] is Glutathione S-Transferase Omega 1 (GSTO1), endogenous in HEK293T (human (endogenous in HEK293T)) (UniProt P78417). The experiment in a line: co-IP; HEK293T transfected with HA-ASC, Myc-NLRP3, GSTO1 or empty vector; low stringency lysis buffer (50 mM Hepes pH 7.5, 100 mM NaCl, 1 mM EDTA, 10% glycerol, 0.5% NP-40); precipitated with anti-GSTO1 antibody or rabbit IgG on Protein A/G beads at 4°C; Western blot with anti-HA, anti-Myc, anti-GSTO1. For orientation: In western blotting, separated proteins are transferred to a membrane and probed.

Experiment [2] concerns the target Glutathione S-Transferase Omega 1 (GSTO1), overexpressed (human) (UniProt P78417). The description is as above.

These are yes or no findings as the source states them, for the method shown. Binding seen in cells or lysates may run through a third protein. Some entries that bind do so weakly or less than the wild type.

Consider HA-ASC (from UniProt Q9ULZ3 1-195), for which the binding result in experiment [1] and in experiment [2] was “binds” each time.

Regarding Myc-NLRP3 (from UniProt Q96P20 1-1036), the binding result in experiment [1] and in experiment [2] was “no binding” in each case.
